What was measured:
peptide synthesis = conditions: conjugation step, reverse phase HPLC
peptide made by a vendor = conditions: conjugation step, reverse phase HPLC

| Substance | final HPLC purity (peptide synthesis) | final HPLC purity (peptide made by a vendor) |
| --- | --- | --- |
| Ser12 Mutated DA Exendin-4(Lys27)-PEG-Immunoglobulin Fc Conjugate | 92.5% |  |
| Arg12 Mutated DA Exendin-4(Lys27)-PEG-Immunoglobulin Fc Conjugate |  | 99.2% |
